Some of the results follow. Shown are side measurements of this screen, not its main read-out; they come without a call. Compounds called inactive in the main read-out are mostly missing here. Potencies come from curve fits of mixed quality, noted in brackets.
Assay: qHTS Assay for Lipid Storage Modulators in Drosophila S3 Cells;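 for cell number change: cells counted by Cell Tracker Red CMTPX staining in the red channel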
Conditions: BODIPY lipid droplet fluorescence, 18-24 h; for cell number change: measured here: cell count max response, cells fed with added oleic acid
Procedure, shortened: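 Drosophila S3 cells got compounds at several concentrations plus oleic acid (400 uM solution). Laser-scanning cytometry with 488 nm excitation read lipid droplets at 500-530 nm and cells at 575-640 nm. Percent activity was relative to 20 uM Triacsin C.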

[1] = measured here: cell number channel AC50, cells fed with added oleic acid
[2] = measured here: lipid fluorescence (Fed channel) AC50, cells fed with added oleic acid

SMILES	cell number change [%]	AC50 [1]	AC50 [2]
COc1ccc(OC)c(N2C(=O)NC(=O)/C(=C\c3ccc([N+](=O)[O-])s3)C2=O)c1	21.8		
COc1ccc2c(c1)[nH]c1c(C)nccc12	28.6	0.0731 µM [rising, full curve]	0.731 µM [rising, full curve]
CC1(C)C(C=C(Cl)Cl)C1C(=O)OCc1cccc(Oc2ccccc2)c1 (configuration not stated)		9.2 µM [rising, partial curve, poor fit]	
O=C(Nc1ccc(Cl)cc1C(=O)c1ccccc1)c1ccccc1	-19.9		18.4 µM [falling, single point]
C=CCn1c(O)c(C(C)=NCCCN2CCOCC2)c(=O)[nH]c1=O	7.05	5.17 µM [rising, single point]	14.6 µM [rising, single point]
COCCCNC(=O)c1c(NC(=O)c2ccco2)n(Cc2ccccc2)c2nc3ccccc3nc12	10.2		1.84 µM [rising, partial curve]
O=c1[nH]c(=S)n(-c2ccccc2)c(O)c1/C=N/N1CCCCC1c1cccnc1 (configuration not stated)			1.64 µM [rising, partial curve]
COC(=O)C1=C(c2ccc(OC)c(OC)c2)C[C@@H]2CC[C@H]1N2C(=O)NCCNC(C)=O	6.26		
CC(C)c1oc(=O)cc2c1[C@@H](O)[C@H]1OC(=O)[C@@]3(C)C[C@@H](O)[C@@H](O)[C@@]2(C)C13 (some centres not stated)	-26.3	0.82 µM [falling, full curve, poor fit]	1.3 µM [falling, full curve]
O=C(Nc1cccc(C(F)(F)F)c1)OC1CN2CCC1CC2 (configuration not stated)	34.5		29.1 µM [rising, single point]
CC(=O)OC1N=C(c2ccccc2Cl)c2cc(Br)ccc2NC1=O (configuration not stated)	27.7	3.66 µM [rising, full curve, poor fit]	29.1 µM [rising, single point]
OC(c1ccncc1)(c1ccc(F)cc1)c1ccc(F)cc1	22.2		1.16 µM [falling, single point]
Cc1cc(NC(=O)COC(=O)c2c(C)nn(Cc3ccccc3)c2Cl)no1		0.259 µM [rising, full curve, poor fit]	1.64 µM [rising, partial curve]
COC(=O)C1=C(c2ccc(C(C)=O)cc2)C[C@@H]2CC[C@H]1N2C(=O)N1CCOCC1	6.02		0.58 µM [rising, full curve, poor fit]
Cc1cc(Cc2c(O)[nH]c(=S)[nH]c2=O)ccc1OC(C)C	-17		
CN1CCC(C)(O)C2CCCCC21 (configuration not stated)	-21.9		29.1 µM [falling, single point]
Nc1c(C(=O)NCCN2CCOCC2)c2nc3ccccc3nc2n1Cc1ccccc1	-33.2	16.4 µM [falling, single point]	18.4 µM [falling, single point]
Cc1ccc(CN2CC3CC(C2)c2cccc(=O)n2C3)cc1 (configuration not stated)	-16.3		2.91 µM [falling, full curve]

Entries listed so far containing a halogen:
SMILES	cell number change [%]	AC50 [1]	AC50 [2]
CC1(C)C(C=C(Cl)Cl)C1C(=O)OCc1cccc(Oc2ccccc2)c1 (configuration not stated)		9.2 µM [rising, partial curve, poor fit]	
O=C(Nc1ccc(Cl)cc1C(=O)c1ccccc1)c1ccccc1	-19.9		18.4 µM [falling, single point]
O=C(Nc1cccc(C(F)(F)F)c1)OC1CN2CCC1CC2 (configuration not stated)	34.5		29.1 µM [rising, single point]
CC(=O)OC1N=C(c2ccccc2Cl)c2cc(Br)ccc2NC1=O (configuration not stated)	27.7	3.66 µM [rising, full curve, poor fit]	29.1 µM [rising, single point]
OC(c1ccncc1)(c1ccc(F)cc1)c1ccc(F)cc1	22.2		1.16 µM [falling, single point]
Cc1cc(NC(=O)COC(=O)c2c(C)nn(Cc3ccccc3)c2Cl)no1		0.259 µM [rising, full curve, poor fit]	1.64 µM [rising, partial curve]

(continued)

SMILES	cell number change [%]	AC50 [1]	AC50 [2]
Cc1nn(Cc2ccccc2)c(C)c1C(=O)NCc1ccccc1	91.5		
C#CCOCCOCCOCCNc1nc(N2CCN(C(=O)CCCCCCCCCCNC(=O)[C@H]([C@@H](C)CC)n3cc(CCCCN=C(N)N)nn3)CC2)nc(N2CCN(C(=O)CCCCCCCCCCNC(=O)[C@H](CO)n3cc(CCCCCN)nn3)CC2)n1	-87.5	11.6 µM [falling, partial curve]	25.9 µM [falling, single point]
COc1ccc2[nH]c(C)c(CCNCc3cn(C)c4ccccc34)c2c1	-8.13	2.59 µM [rising, single point]	2.06 µM [falling, partial curve]
COc1cc2c(cc1OC)-c1c(OC)c(OC)cc3c1[C@H](C2)[N+](C)(C)CC3	-22.6		3.66 µM [falling, full curve]
CC(C)C(C)(NC(=O)c1cccn(Cc2ccc3c(c2)OC(F)(F)O3)c1=O)C(N)=O (configuration not stated)	35.8	0.164 µM [rising, full curve, poor fit]	
CNc1cc(N2CCNCC2)ccc1[N+](=O)[O-]	-16	0.0326 µM [falling, full curve, poor fit]	5.8 µM [falling, partial curve]
Cc1nc2c(=O)n(C)c(=O)nc-2n(C)n1	-48	1.84 µM [falling, full curve]	1.46 µM [falling, full curve]
CCn1cc(CN2CCCC(C(=O)c3sccc3C)C2)cn1 (configuration not stated)	-4		4.11 µM [falling, full curve, poor fit]
CCN(CC)C(=O)c1ccc(NC(=O)CCCSc2ccccc2)cc1			6.51 µM [falling, single point]
Brc1ccc(CN2CCNCC2)s1	-74.6	23.1 µM [falling, single point]	
CCCCn1c(=O)c(C(=O)NCc2ccncc2)c(O)c2ccccc21	19.4		
CCC(=NCCCN(CC)CC)c1c(O)n(-c2ccccc2)c(=O)[nH]c1=O	-15.1		3.66 µM [falling, full curve, poor fit]
CCOc1ccc(-n2c(O)c(C=NCCN3CCNCC3)c(=O)[nH]c2=O)cc1	15.6		
CN(CCc1nnc(N)s1)[N+](=O)[O-]	-46	5.8 µM [falling, partial curve, poor fit]	9.2 µM [falling, partial curve, poor fit]
O=C(Cc1ccccc1)N1CCN(Cc2ccccc2Cl)CC1	20.1		0.00517 µM [falling, full curve, poor fit]
Cc1nc2nc(C)c(CCC(=O)N3CCC4(CC3)OCCO4)c(C)n2n1	8.34		18.4 µM [falling, single point]
CC1CN=C(NCc2ccccc2Cl)S1 (configuration not stated)	-19.6		1.16 µM [rising, full curve, poor fit]
COP1(=O)C[C@@H](O)[C@@H](O)[C@@H](COCc2ccccc2)O1 (some centres not stated)		29.1 µM [falling, single point]	

Source: PubChem BioAssay AID2685 (National Center for Advancing Translational Sciences (NCATS), 2010)
